# PubChem BioAssay AID1224830 – NIAID – 2016
# Screen: 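Regulators of TLR4 signalling towards TNF-alpha in macrophage-like cells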 (primary screen)
# Cell system: human THP-1 monocytic leukaemia cells, TNF dual-luciferase reporter clone, PMA-differentiated to macrophage-like cells
# Reagents: siRNA pool against human genes, 50 nM
# Timing: LPS for 4 h, given about 3 days after siRNA transfection
# Challenge: bacterial LPS (TLR4 ligand), 10 ng/ml
# Detection: 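TNF firefly reporter luminescence divided by renilla, normalised to the plate median, then turned into a robust z-score for each replicate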
# Reading the numbers: TNF reporter robust z-score: higher = stronger TNF reporter response to LPS
# Call rule: 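a well is active when its z-score exceeds 2.8 or falls below -1.5; control wells carry no call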
# In all, the deposit lists about 18,000 reagents; below is an unselected part. About 2,900 of them (16%) were called active. 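Calls are made per well; low scores hint the gene aids the LPS response, high scores that it dampens it.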 Entries without a mark were called inactive. Repeated entries: four replicate wells of each siRNA pool.
target gene,TNF reporter robust z-score
ARFIP1,-1.76 (active)
ARFIP1,-1.39
ARFIP1,-1.62 (active)
ARFIP1,-0.87
PRDM1,-0.81
PRDM1,0.03
PRDM1,-0.07
PRDM1,-0.26
TP53I13,-1.38
TP53I13,-0.86
TP53I13,-0.65
TP53I13,0.23
GPRC5C,-0.28
GPRC5C,-0.21
GPRC5C,-0.37
GPRC5C,0.74
CHSY3,-0.46
CHSY3,-0.28
CHSY3,-1.8 (active)
CHSY3,0.68
OTOR,-1.19
OTOR,-1.08
OTOR,-1.61 (active)
OTOR,-1.69 (active)
ZNF559,0.02
ZNF559,0.7
ZNF559,-0.96
ZNF559,0.43
PTMS,-0.38
PTMS,0.56
PTMS,-1.05
PTMS,-0.19
SHC1,-0.67
SHC1,0.95
SHC1,-0.6
MC3R,-0.17
MC3R,-0.78
MC3R,-0.49
MC3R,0.6
ZNF22-AS1,-0.44
ZNF22-AS1,2.03
ZNF22-AS1,1.29
ZNF22-AS1,2.05
ZNF7,0.1
ZNF7,-0.13
ZNF7,0.43
ZNF7,0.65
KCNJ12,-0.01
KCNJ12,-0.55
KCNJ12,0.48
KCNJ12,-0.17
GLIS2,0.06
GLIS2,0.09
GLIS2,-0.14
GLIS2,0.36
SH3GL2,1.19
SH3GL2,0.48
SH3GL2,-0.4
SH3GL2,0.22
GPR137B,-1.18
GPR137B,-0.72
GPR137B,-0.9
GPR137B,-0.89
AZI2,-0.58
AZI2,0.42
AZI2,0.02
AZI2,-0.18
LRFN4,1.24
LRFN4,1
LRFN4,0.18
LRFN4,1.66
PCDHGC4,-0.19
PCDHGC4,1.26
PCDHGC4,0.74
PCDHGC4,1.54
TMEM186,-0.39
TMEM186,0.62
TMEM186,0.78
TMEM186,1.51
SLIRP,-0.23
SLIRP,-0.17
SLIRP,-0.32
SLIRP,-0.22
FYCO1,-1.02
FYCO1,1.59
FYCO1,-0.06
FYCO1,0.08
C1QTNF2,-0.53
C1QTNF2,-0.89
C1QTNF2,-0.48
C1QTNF2,-1.05
BMP8A,-0.18
BMP8A,0.46
BMP8A,-0.11
BMP8A,-0.46
PLXNA4,-0.58
PLXNA4,0.44
PLXNA4,0.51
PLXNA4,0.39
PLXNA4,3.42 (active)
PLXNA4,1.44
PLXNA4,1.22
PLXNA4,0.47
SFT2D3,0.54
SFT2D3,0.79
SFT2D3,-0.06
SFT2D3,0.38
CNST,-0.38
CNST,-0.04
CNST,0.01
CNST,-0.74
